Assay results taken from article PMC4537036.
Results are given in words; binding and its absence hold for the method and conditions named. In cells and extracts the contact can be indirect. For some assays here: A result given as binding can be weak or reduced; the word gives no strength. Where a sequence is shown, tags or fusion partners need not be part of it.

Chains of the proteins cited; added tags and fusions are not shown. Lines headed by an entry give the natural chain unless they say otherwise; changes in a name come on top.
UniProt O60711: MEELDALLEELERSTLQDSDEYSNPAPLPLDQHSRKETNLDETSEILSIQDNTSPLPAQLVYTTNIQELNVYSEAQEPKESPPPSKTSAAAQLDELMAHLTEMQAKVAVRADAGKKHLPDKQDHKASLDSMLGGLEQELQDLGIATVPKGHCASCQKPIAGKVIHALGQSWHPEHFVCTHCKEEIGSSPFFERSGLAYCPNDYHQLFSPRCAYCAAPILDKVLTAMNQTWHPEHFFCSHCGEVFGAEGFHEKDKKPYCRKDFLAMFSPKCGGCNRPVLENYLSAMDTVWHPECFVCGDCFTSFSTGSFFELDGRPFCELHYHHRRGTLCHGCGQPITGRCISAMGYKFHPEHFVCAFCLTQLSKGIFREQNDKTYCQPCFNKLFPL

Key:
[1] = target: GST-LPXN-LD (the four LD motifs of leupaxin, aa 32-176) (human) (UniProt O60711); assay: pull-down; purified GST-LPXN fusion proteins on glutathione-Sepharose, incubated with protein lysate of PC-3 cells transfected with pEGFP-Caldesmon; blot with CaD-specific antibody; only the target purified
[2] = target: GST-LPXN-LIM (the four LIM domains of leupaxin, aa 173-417) (human); assay: as above

binding [1]: binds
binding [2]: no binding
B1: EGFP-Caldesmon fusion protein (pEGFP-CALD1) (protein, UniProt Q05682-4 1-538)
chain: MDDFERRRELRRQKREEMRLEAERIAYQRNDDDEEEAARERRRRARQERLRQKQEEESLGQVTDQVEVNAQNSVPDEEAKTTTTNTQVEGDDEAAFLERLARREERRQKRLQEALERQKEFDPTITDASLSLPSRRMQNDTAENETTEKEEKSESRQERYEIEETETVTKSYQKNDWRDAEENKKEDKEKEEEEEEKPKRGSIGENQIKDEKIKKDKEPKEEVKSFMDRKKGFTEVKSQNGEFMTHKLKHTENTFSRPGGRASVDTKEAEGAPQVEAGKRLEELRRRRGETESEEFEKLKQKQQEAALELEELKKKREERRKVLEEEEQRRKQEEADRKLREEEEKRRLKEEIERRRAEAAEKRQKMPEDGLSDDKKPFKCFTPKGSSLKIEERAEFLNKSVQKSSGVKSTHQAAIVSKIDSRLEQYTSAIEGTKSAKPTKPAASDLPVPAEGVRNIKSMWEKGNVFSSPTAAGTPNKETAGLKVGVSSRINEWLTKTPDGNKSPAPKPSDLRPGDVSSKRNLWEKQSVDKVTSPTKV
